Experimental data taken from the supplement of paper PMC6078165.
Values are relative to the signal before dosing, not to a vehicle control; the signal also falls without drug.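 Fibroblast labels denote human fibroblasts, mainly primary ones from uterus (C12385, HUF), lung (H6013), bone (Hs27A), adrenal (HADF) and skin (WS1), plus mammary HMF and breast cancer-associated Hs343T. Cancer cells are basal-like or mesenchymal-like triple-negative breast cancer lines. A hit is a response shift exceeding 3x replicate standard deviation. The tissue of the other fibroblasts is not given here.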

Test system: MDAMB436
Test: relative JC-1 red fluorescence (viability) vs pre-drug, coculture with fibroblast (fraction); higher = more viable cancer cells
Details: 10 µM
Experimental: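 JC-1 labelled TNBC cells cocultured 1:1 (1,500 cells each) with CellTrace Violet stained primary or stromal fibroblasts in 384-well plates in FluoroBrite medium, treated with one of 42 anticancer drugs at 0.1, 1, 10 or 100 uM. JC-1 red fluorescence (mitochondrial integrity in cancer cells only) was read by plate reader every 8 h for 72 h. Values are normalised to each well's pre-drug value. The stock of one drug was tenfold lower, so its dose labels may be too high.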

CS(=O)(=O)CCNCc1ccc(-c2ccc3ncnc(Nc4ccc(OCc5cccc(F)c5)c(Cl)c4)c3c2)o1 [Lapatinib]
relative JC-1 red fluorescence
Details | 8 h | 16 h | 24 h | 32 h | 40 h | 48 h | 56 h | 64 h | 72 h
coculture fibroblast: C12385 | 0.851 | 0.795 | 0.803 | 0.791 | 0.809 | 0.827 | 0.827 | 0.836 | 0.844
coculture fibroblast: H6013 | 0.8232 | 0.78 | 0.804 | 0.856 | 0.853 | 0.875 | 0.892 | 0.904 | 0.913
coculture fibroblast: H6019 | 0.852 | 0.87 | 0.905 | 0.915 | 0.939 | 0.891 | 0.942 | 0.914 | 0.883
coculture fibroblast: H6076 | 0.8482 | 0.74827 | 0.7 | 0.689 | 0.694 | 0.709 | 0.722 | 0.733 | 0.716
coculture fibroblast: H6231 | 0.844 | 0.758 | 0.7364 | 0.698 | 0.672 | 0.657 | 0.633 | 0.605 | 0.583
coculture fibroblast: HADF | 0.8083 | 0.779 | 0.792 | 0.821 | 0.834 | 0.859 | 0.854 | 0.86 | 0.865
coculture fibroblast: HCFa | 0.855 | 0.826 | 0.84 | 0.867 | 0.89 | 0.877 | 0.759 | 0.788 | 0.848
coculture fibroblast: HCPF | 0.877 | 0.806 | 0.774 | 0.754 | 0.755 | 0.759 | 0.761 | 0.765 | 0.779
coculture fibroblast: HHSteC | 0.815 | 0.838 | 0.887 | 0.808 | 0.877 | 0.807 | 0.904 | 0.803 | 0.901
coculture fibroblast: HMF | 0.919 | 0.851 | 0.791 | 0.775 | 0.761 | 0.759 | 0.747 | 0.746 | 0.742
coculture fibroblast: HPFa | 0.887 | 0.8804 | 0.9032 | 0.9294 | 0.97 | 0.98 | 0.977 | 0.843 | 0.949
coculture fibroblast: HUF | 0.893 | 0.821 | 0.818 | 0.8 | 0.807 | 0.81 | 0.813 | 0.83 | 0.829
coculture fibroblast: Hs5 | 0.932 | 0.8845 | 0.893 | 0.884 | 0.892 | 0.9006 | 0.924 | 0.9272 | 0.9587
coculture fibroblast: Hs27A | 0.789 | 0.749 | 0.736 | 0.765 | 0.751 | 0.804 | 0.765 | 0.765 | 0.749
coculture fibroblast: Hs343T | 0.873 | 0.783 | 0.735 | 0.711 | 0.7 | 0.704 | 0.693 | 0.712 | 0.723
coculture fibroblast: WS1 | 0.835 | 0.762 | 0.769 | 0.749 | 0.745 | 0.761 | 0.758 | 0.757 | 0.757
